Experimental data reported in publication PMC6925144, “A prospective compound screening contest identified broader inhibitors for Sirtuin 1” (Scientific Reports, 2019).
Over roughly 3,200 compounds, “TSA(without NAD+) / Primary screening (TSA) / delta Tm (K)” has its median near -0.07; the highest 2% begin near 0.37. The list shows a part of the results.

The chains behind the UniProt entries cited, without tags or fusion partners. Residues count along the entry.
UniProt Q96EB6, 2-747 limits assumed: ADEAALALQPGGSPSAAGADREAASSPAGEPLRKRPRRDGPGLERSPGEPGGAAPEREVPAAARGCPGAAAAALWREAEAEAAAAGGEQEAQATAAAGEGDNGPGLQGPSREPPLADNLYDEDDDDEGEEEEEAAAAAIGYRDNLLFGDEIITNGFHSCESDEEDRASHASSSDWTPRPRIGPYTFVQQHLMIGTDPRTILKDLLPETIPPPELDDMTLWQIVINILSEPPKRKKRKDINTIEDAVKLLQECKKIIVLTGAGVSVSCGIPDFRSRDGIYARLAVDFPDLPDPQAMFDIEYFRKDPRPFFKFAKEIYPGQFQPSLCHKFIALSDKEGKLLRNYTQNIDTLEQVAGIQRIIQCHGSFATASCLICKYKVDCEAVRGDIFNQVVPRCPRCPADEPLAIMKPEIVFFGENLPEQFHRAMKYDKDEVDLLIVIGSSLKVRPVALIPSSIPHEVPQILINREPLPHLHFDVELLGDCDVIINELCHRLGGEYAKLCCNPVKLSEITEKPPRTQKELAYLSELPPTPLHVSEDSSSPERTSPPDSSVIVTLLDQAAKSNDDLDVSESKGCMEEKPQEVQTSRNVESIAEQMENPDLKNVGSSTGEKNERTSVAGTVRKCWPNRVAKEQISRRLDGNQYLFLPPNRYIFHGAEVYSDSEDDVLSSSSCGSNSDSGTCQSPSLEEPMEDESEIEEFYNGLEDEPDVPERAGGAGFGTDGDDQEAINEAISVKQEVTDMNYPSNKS

Molecular target: NAD-dependent deacetylase Sirtuin 1 (human, UniProt Q96EB6)
Assay: primary screen, delta tm
Parameters: single well (n = 1)
Details: 10 µM
Method in brief: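 Thermal shift of Sirtuin 1 measured without NAD+, compound at 10 µM (n = 1); value is ΔTm, with hits defined as ΔTm > 0.45 K or < −1.5 K. Hits retested at 5, 10, 20 µM (n = 4) and counterscreened on bovine carbonic anhydrase and ABL1 SH2 domain.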

Structure (SMILES)	TSA(without NAD+) / Primary screening (TSA) / delta Tm (K)
O=C(CCn1[nH]c(=O)ccc1=O)Nc1cccc2cccnc12	0.02
Cc1ccc(S(=O)(=O)NCc2ccco2)cc1C(=O)NCc1ccccc1-n1cccn1	-0.01
CN(C)c1c(F)cc(C(=N)N)cc1F	-0.18
Cc1nc2c(C(N)=O)ncn2c(C)c1CCC(=O)NCCSc1ccccc1	-0.03
CC(=O)c1sc(NC(=O)c2cnc3ccccc3n2)nc1-c1ccccc1	0.25
COc1ccc(/C=N/c2ccc(C(=O)O)cc2)cc1Br	0.07
O=C(Nc1ccc(S(=O)(=O)N2CCOCC2)cc1)C1=COCCO1	-0.05
Cc1ccc(S(=O)(=O)N2CCN(C(=O)CSc3nnc(NCc4ccco4)s3)CC2)cc1	0.16
C=CCOc1cccc(C2C(C(=O)c3ccc(C)o3)=C(O)C(=O)N2CCCN2CCOCC2)c1 (centres unmarked)	-0.02
CCC(N)CC(=O)O (centres unmarked)	-0.17
N#C/C(=C/c1ccc(-c2cccc(Cl)c2)o1)C(=O)Nc1cccc2ncccc12	-0.04
CCc1c(C)nc2ccccc2c1N1CCN2C(=O)C(=O)NCC2C1 (centres unmarked)	-0.28
CC1(C)C(NC(=O)C2CC(c3cccc(F)c3)=NO2)C2CCOC21 (centres unmarked)	-0.11
c1ccc(-c2cnc(CSc3nc4ccccc4o3)o2)cc1	-0.07
COc1ccc(OC)c2c1CN(C(C)c1nc(C3CC3)no1)CC2O (centres unmarked)	-0.12
CN(Cc1ccc(F)cc1)c1cc(=O)n2ccccc2n1	0.02
COC(=O)NC(CC(C)C)C(=O)NCc1cc(C)nc2ccccc12 (centres unmarked)	-0.12
COc1ccc(O)c(/C(C)=N/Nc2nc(C)cc(O)n2)c1	-0.03
NC(=O)c1ccc(NC(=O)c2cc(-c3ccccc3)nc3ccccc23)cc1	-0.08
CCOCCCN1C(=O)/C(=C/c2c(N3CCC(C)CC3)nc3ccc(C)cn3c2=O)SC1=S	-0.04
O=c1cc(CSc2nnc(Nc3ccccc3)s2)c2ccc(O)cc2o1	0.38
COc1ccc(C(CN2CCN(C)CC2)NC(=O)OC(C)(C)C)cc1 (centres unmarked)	-0.02
CCOc1ccc2nc(NN=C3C(=O)NC(=S)NC3=O)sc2c1	-0.07
COc1ccc(-c2csc3nc(C)nc(N4CCN(C5CCS(=O)(=O)C5)CC4)c23)cc1OC (centres unmarked)	-0.03
O=C1CCCCC(C(=O)Nc2ccc(-c3nc4ccccc4[nH]3)cc2)N1 (centres unmarked)	-0.03
CC1CCC1N (centres unmarked)	-0.21

Part of the list above in a different format:
Structure (SMILES) | TSA(without NAD+) / Primary screening (TSA) / delta Tm (K)
CCc1c(C)nc2ccccc2c1N1CCN2C(=O)C(=O)NCC2C1 (centres unmarked) | -0.28
CC1(C)C(NC(=O)C2CC(c3cccc(F)c3)=NO2)C2CCOC21 (centres unmarked) | -0.11
